Results are given in words; binding and its absence hold for the method and conditions named. In cells and extracts the contact can be indirect. For part of these data: Binding can be weak; no strength is given.
Experiments:
Assay in all cases: co-IP; HEK293T co-transfected with Myc-DDX5 (or mutants) and Flag-METTL3 (or mutants), 24 h, NP40 lysis; IP with mouse anti-Flag antibody (METTL3 mutants, Fig 2D) or anti-Myc antibody (DDX5 mutants, Fig 2G) and protein G/A magnetic beads; western blot
[1] = biological target: Myc-DDX5 with deletion of the HELICc domain (mouse) (UniProt Q61656)
[2] = biological target: Myc-DDX5 with deletion of the DEXDc domain (mouse) (UniProt Q61656)
[3] = biological target: Myc-DDX5 with deletion of the P68HR domain (mouse) (UniProt Q61656)

The chains behind the UniProt entries cited, without tags or fusion partners. Where a name states a change or a piece, a line headed by the entry shows the natural chain unless it says otherwise.
UniProt Q61656: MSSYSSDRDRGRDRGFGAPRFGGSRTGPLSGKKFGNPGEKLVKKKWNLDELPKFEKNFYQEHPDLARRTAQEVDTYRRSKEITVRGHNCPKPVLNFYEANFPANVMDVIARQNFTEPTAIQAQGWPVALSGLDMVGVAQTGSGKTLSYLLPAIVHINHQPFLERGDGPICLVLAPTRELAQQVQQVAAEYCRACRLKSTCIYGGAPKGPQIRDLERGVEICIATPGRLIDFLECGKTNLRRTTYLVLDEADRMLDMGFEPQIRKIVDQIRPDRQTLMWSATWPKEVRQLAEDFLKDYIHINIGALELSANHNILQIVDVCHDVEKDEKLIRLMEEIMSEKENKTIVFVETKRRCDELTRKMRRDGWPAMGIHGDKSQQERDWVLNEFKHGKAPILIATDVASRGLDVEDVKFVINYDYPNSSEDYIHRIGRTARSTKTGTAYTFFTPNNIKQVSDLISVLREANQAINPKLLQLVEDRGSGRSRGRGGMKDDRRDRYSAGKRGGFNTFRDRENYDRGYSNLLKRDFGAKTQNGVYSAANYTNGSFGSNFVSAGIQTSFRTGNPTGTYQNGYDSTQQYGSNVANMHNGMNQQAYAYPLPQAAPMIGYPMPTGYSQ
UniProt Q8C3P7: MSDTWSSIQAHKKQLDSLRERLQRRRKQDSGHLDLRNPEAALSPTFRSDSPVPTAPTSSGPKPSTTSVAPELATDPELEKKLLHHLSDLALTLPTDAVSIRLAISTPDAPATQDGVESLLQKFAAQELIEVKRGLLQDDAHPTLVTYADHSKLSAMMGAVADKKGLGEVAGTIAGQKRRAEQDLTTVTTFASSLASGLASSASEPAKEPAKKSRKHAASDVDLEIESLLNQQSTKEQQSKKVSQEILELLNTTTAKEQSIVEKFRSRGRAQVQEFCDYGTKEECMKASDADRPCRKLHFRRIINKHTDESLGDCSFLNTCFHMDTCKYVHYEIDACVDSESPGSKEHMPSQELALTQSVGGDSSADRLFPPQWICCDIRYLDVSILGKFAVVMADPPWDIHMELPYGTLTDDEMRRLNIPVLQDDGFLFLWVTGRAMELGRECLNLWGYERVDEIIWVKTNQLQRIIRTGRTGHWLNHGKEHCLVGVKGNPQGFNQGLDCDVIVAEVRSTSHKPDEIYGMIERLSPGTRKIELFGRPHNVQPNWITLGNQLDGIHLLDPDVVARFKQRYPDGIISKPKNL

- binding [1]: binds
- binding [2]: binds
- binding [3]: no binding
Substance: Flag-METTL3 (mouse) (from UniProt Q8C3P7 1-580)
